PMC6424098
Results are given in words; binding and its absence hold for the method and conditions named. In cells and extracts the contact can be indirect.

Sequences of proteins named here, by UniProt entry; tags and fusion partners are left off. A change or cut given only in a name is not applied to a line headed by its entry.
UniProt Q05826: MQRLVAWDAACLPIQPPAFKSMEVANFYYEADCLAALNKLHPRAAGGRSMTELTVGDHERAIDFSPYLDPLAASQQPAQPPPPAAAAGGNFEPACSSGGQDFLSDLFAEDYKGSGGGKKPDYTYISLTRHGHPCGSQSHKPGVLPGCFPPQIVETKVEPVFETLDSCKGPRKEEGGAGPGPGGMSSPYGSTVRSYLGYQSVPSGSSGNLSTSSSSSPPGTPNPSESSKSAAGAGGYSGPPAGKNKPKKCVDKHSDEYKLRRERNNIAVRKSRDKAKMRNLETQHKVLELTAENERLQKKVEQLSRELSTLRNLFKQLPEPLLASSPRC
UniProt Q92830: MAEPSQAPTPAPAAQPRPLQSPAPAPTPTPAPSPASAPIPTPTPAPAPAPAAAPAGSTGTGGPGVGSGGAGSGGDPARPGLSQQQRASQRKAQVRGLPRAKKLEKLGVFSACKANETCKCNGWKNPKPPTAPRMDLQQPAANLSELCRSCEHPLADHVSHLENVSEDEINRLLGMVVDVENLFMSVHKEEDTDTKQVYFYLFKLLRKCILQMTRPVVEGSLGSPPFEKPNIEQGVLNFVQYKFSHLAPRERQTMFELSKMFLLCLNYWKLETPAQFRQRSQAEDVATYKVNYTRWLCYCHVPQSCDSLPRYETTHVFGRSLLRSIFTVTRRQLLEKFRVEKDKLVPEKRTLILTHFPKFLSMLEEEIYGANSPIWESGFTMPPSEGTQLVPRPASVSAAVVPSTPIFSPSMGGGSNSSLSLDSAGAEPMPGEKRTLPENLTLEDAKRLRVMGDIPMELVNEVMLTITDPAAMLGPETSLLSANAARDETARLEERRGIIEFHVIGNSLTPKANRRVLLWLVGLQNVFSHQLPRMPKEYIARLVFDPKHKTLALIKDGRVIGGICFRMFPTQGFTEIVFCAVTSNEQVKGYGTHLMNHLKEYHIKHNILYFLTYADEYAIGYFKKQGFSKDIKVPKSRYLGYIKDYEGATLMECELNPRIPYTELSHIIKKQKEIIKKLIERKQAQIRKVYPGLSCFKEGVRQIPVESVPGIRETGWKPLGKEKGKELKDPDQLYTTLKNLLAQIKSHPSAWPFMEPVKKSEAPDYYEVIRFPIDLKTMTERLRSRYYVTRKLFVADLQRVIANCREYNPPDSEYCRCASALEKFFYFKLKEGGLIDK

Target: C/EBPβ LAP*Δ7, FLAG-tagged (UniProt Q05826)
Assay: co-IP; FLAG-tagged C/EBPβ constructs expressed in HEK293 (HEK293T) cells and immunoprecipitated; endogenous partners detected by immunoblotting (Figures 4C, 4D, 5B, 6B right)

With “histone acetyltransferase GCN5 of the SAGA complex (from UniProt Q92830 1-837)” the binding was “no binding”.
